Test results: US20040105855A1 (Bristol-Myers Squibb, published 2004)
No constants are given. Whether binding was seen depends on the method and setting. Some entries that bind do so weakly or less than the wild type.

Molecular target: hu4-1BBIg fusion protein (extracellular domain of H4-1BB fused to the constant domains of a human IgG1 antibody), immobilized on the BIAcore sensorchip (human) (UniProt Q07011+P01857)
Assay: SPR BIAcore 3000, immobilized H4-1BB

B1: hu39E3.G4 (humanized 39E3, IgG4) (antibody, V domains shown)
VH: EVQLVESGGGLVQPGGSLRLSCAASGFTFSDYWMSWVRQAPGKGLEWVADIKNDGSYTNYAPSLTNRFTISRDNAKNSLYLQMNSLRAEDTAVYYCARELTGTWGQGTMVTVSS
VL: DIVMTQSPDSLAVSLGERATINCKSSQSLLSSGNQKNYLAWYQQKPGQPPKLLIYYASTRQSGVPDRFSGSGSGTDFTLTISSLQAEDVAVYYCLQYDRYPFTFGQGTKLEIKR
notes: Humanized IgG4 with a hinge mutation (after Angal et al.), made in CHO DG-44; also called humanized 39E3.G4 antibody; humanized anti-H4-1BB mAb
For B1, the binding was “binds”.
